Test results: article doi:10.1101/2021.12.02.470854
No constants are given. Whether binding was seen depends on the method and setting. Binding seen in cells or lysates may run through a third protein. Some binding calls cover weakened binding; strength is not graded here. Tags and fused reporters may be left off the sequences shown.

Biological target: T1, CTP synthase (CTPS), HA-tagged, expressed from pAc5.1 CTPS-HA-T2A-If-V5 (Drosophila (cDNA from the w1118 line)) (UniProt Q9VUL1)
T1 sequence: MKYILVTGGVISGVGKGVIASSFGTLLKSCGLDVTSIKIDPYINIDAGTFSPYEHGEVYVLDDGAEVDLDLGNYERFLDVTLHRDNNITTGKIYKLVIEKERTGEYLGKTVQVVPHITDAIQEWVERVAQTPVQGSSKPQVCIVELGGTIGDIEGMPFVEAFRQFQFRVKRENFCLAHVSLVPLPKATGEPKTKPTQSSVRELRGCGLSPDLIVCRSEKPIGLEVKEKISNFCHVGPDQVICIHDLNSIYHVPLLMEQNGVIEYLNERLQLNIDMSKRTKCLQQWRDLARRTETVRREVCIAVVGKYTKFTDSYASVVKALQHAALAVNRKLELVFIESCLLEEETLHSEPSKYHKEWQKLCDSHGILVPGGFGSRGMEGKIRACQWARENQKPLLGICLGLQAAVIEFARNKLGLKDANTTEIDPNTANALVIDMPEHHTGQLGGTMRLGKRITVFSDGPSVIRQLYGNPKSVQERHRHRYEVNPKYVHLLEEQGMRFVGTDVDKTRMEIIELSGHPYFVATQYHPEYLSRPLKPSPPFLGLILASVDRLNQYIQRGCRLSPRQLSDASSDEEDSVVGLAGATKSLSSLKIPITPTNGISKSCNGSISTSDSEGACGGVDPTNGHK
Test: co-IP

B1: Integrin αPS2 subunit Inflated (If), V5-tagged, expressed from pAc5.1 CTPS-HA-T2A-If-V5 (receptor, UniProt P12080 32-1396)
chain: YNIDLPSYVRFRQSSNSMFGFSIAMHKGRSGFYGNQNNVSLIVGAPKFDTSRYQQGVTEAGGVFKCSLNDDDCKLVPFDSKGNNRNVDKEVVDRKSYQWLGATVATGRDSDLVVACAPRYVFHTMTPSRAFRIDPVGTCFTSHNFEEFYEVSPCRTNNWGYHRQGSCQAGFSAAINGNGSRLFIGAPGSWYWQGQTYSIPPDAKFPFKPPLYQPFGTGGMASSHDVTRPENQVFSTSESASVNDDSYLGYSMVTGDFDGDRSEDVAIGMPRGGNLVGRIVVNRWNMANIFNITGRQIGEYFGYSLATSDVDGDGLDDLLIGAPMYTDPDNVEGKYDVGRVYILLQGGPTEEKRWTTEHIRDGYHSKGRFGLALTTLGDVNGDGYGDFAVGAPYDGPEGRGVVYIFHGSPMGPLAKPSQIIKSEQLVEGAPYPRTFGFALSGGLDMDGNTYPDLAVGAYSSDQVFIFKSRPVAAVNAETSFASNSKLISLDDRSCQLVRDHKKVPCMLLTTCWSYTGRYLPEQLDFDVSWLLDAKKLLNPRMFFLRDEGKNIRNQTIRLNYGQKYCLNETVYLLDKVQDKLTPLEVEARYNLRSSRPLDPMVRHRRSILEPVIDQNREIVLRDAINIQKNCGPDNICEPDLKLKVSTVDKYLFGSPEPLVIEVFISNTNEDAFEAAFYMVTPPDLQFRKLQQLGEKKDTPITCSPPTPENNHTLKCDIGNPLESGKIAHFKISLVPEEKYGSSSSYDFYWEANSTNLEKPGSEYDNKIRQSVGIWVDTDLDIKGTSLPDYQLYKADDYKELENATKEDDIGPQVVHIYEIRNNRPSIIEEAEVFIHLPYETIVGDPLMYLLNQPETGGKIQCDDVAFNEYNLLLDEKLVKKSYLQAQGAIWNSAQVSGQSSSSSSSGGASVHIEKARGEGFVRGVLVSNSTDAGDKLSPKQVEQRRQEDTLEALGDASFVHRDRASQAVQEPQVNQTSFTTYSTSSSSSGSGAPSAQLRGHSTQGHIQMAGPVQHTSSSSSSNYRSWPAQQQQQHQQLLLAGSGGSGLGSPVTFNDKSQFGGRNNNFHTGTLDLGTLNRGNVDNELYRSQGQYQNPSQSLGQSQGQFQANANQGHYQGQNQAQFQARNPGFQGQTSYQGQTQYSGQPGGYQTHHVTYSSGSKPYYGRENEDFYDEDNLQQATPGHWSSSSSSSSSSGTRRLRRSNDKDGATEKPLQIDLNSPCQSARCKSIRCVVTNLGTEDGDAAFVAIRARMVAKTMEKLASNVPLNVSTLAVANVTLLPFIGAPKDAIVKTHEIFYKAEPEPLQVPDVVPLWVVVLAACAGALIFLLLVWLLYKCGFFNRNRPTDHSQERQPLRNGYHGDEHL
binding: binds
